Literature values as cited in article PMC7591906, “pHLIP ICG for delineation of tumors and blood flow during fluorescence-guided surgery” (Scientific Reports, 2020).
Peptide text beside a SMILES is read from it. * marks the point of attachment. X1 = CC1(C)C(/C=C/C=C/C=C/C=C2/N(CCCCCC(=O)NCCN3C(=O)CC(*)C3=O)c3ccc4ccccc4c3C2(C)C)=[N+](CCCCS(=O)(=O)[O-])c2ccc3ccccc3c21

System: malignant bladder and upper tract lesions
Settings: cited from earlier work
[1] = ex vivo application to human bladders, NIR imaging vs pathology

CC(C)C[C@H](NC(=O)[C@H](Cc1ccc(O)cc1)NC(=O)[C@H](C)NC(=O)[C@H](CCCNC(=N)N)NC(=O)[C@H](Cc1c[nH]c2ccccc12)NC(=O)[C@@H]1CCCN1C(=O)[C@H](CC(N)=O)NC(=O)[C@H](CCC(N)=O)NC(=O)[C@H](CC(=O)O)NC(=O)[C@H](CC(=O)O)NC(=O)[C@H](CSC1CC(=O)N(CCNC(=O)CCCCCN2/C(=C/C=C/C=C/C=C/C3=[N+](CCCCS(=O)(=O)[O-])c4ccc5ccccc5c4C3(C)C)C(C)(C)c3c2ccc2ccccc32)C1=O)NC(=O)[C@H](C)N)C(=O)N[C@@H](CC(=O)O)C(=O)N[C@@H](CC(C)C)C(=O)N[C@@H](CC(C)C)C(=O)N[C@@H](Cc1ccccc1)C(=O)N1CCC[C@H]1C(=O)N[C@H](C(=O)N[C@@H](CC(=O)O)C(=O)N[C@H](C(=O)N[C@@H](CC(C)C)C(=O)N[C@@H](CC(C)C)C(=O)N[C@@H](CC(C)C)C(=O)N[C@@H](CC(=O)O)C(=O)N[C@@H](CC(C)C)C(=O)N[C@@H](CC(C)C)C(=O)N[C@@H](Cc1c[nH]c2ccccc12)C(=O)N[C@@H](C)C(=O)O)[C@@H](C)O)[C@@H](C)O (stereo partly shown) [pHLIP ICG] (H-AC(X1)DDQNPWRAYLDLLFPTDTLLLDLLWA-OH)
Sensitivity, malignant bladder lesions [1]: 97%
Specificity, malignant bladder lesions [1]: 100%
Sensitivity, malignant upper tract lesions (ex vivo, NIR imaging (78.9% white light imaging)): 100%
Specificity, malignant upper tract lesions (ex vivo, NIR imaging): 100%
